Reference: publication PMC12198050
Results are given in words; binding and its absence hold for the method and conditions named. Some binding calls cover weakened binding; strength is not graded here.

Sequences of proteins named here, by UniProt entry; tags and fusion partners are left off. A change or cut given only in a name is not applied to a line headed by its entry. Residues count along the entry.
UniProt Q9UM47, residues 40-467: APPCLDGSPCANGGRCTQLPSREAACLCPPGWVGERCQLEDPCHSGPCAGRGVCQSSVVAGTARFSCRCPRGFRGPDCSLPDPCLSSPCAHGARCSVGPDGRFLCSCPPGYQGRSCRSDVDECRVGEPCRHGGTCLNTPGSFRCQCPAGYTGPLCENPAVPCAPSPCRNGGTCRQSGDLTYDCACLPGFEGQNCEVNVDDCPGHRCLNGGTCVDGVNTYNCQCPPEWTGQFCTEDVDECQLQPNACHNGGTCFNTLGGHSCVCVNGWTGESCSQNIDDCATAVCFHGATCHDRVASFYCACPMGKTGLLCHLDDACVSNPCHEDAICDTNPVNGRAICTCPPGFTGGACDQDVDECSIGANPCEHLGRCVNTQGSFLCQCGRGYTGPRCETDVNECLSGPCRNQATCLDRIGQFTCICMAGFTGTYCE
UniProt Q61982, residues 40-2318: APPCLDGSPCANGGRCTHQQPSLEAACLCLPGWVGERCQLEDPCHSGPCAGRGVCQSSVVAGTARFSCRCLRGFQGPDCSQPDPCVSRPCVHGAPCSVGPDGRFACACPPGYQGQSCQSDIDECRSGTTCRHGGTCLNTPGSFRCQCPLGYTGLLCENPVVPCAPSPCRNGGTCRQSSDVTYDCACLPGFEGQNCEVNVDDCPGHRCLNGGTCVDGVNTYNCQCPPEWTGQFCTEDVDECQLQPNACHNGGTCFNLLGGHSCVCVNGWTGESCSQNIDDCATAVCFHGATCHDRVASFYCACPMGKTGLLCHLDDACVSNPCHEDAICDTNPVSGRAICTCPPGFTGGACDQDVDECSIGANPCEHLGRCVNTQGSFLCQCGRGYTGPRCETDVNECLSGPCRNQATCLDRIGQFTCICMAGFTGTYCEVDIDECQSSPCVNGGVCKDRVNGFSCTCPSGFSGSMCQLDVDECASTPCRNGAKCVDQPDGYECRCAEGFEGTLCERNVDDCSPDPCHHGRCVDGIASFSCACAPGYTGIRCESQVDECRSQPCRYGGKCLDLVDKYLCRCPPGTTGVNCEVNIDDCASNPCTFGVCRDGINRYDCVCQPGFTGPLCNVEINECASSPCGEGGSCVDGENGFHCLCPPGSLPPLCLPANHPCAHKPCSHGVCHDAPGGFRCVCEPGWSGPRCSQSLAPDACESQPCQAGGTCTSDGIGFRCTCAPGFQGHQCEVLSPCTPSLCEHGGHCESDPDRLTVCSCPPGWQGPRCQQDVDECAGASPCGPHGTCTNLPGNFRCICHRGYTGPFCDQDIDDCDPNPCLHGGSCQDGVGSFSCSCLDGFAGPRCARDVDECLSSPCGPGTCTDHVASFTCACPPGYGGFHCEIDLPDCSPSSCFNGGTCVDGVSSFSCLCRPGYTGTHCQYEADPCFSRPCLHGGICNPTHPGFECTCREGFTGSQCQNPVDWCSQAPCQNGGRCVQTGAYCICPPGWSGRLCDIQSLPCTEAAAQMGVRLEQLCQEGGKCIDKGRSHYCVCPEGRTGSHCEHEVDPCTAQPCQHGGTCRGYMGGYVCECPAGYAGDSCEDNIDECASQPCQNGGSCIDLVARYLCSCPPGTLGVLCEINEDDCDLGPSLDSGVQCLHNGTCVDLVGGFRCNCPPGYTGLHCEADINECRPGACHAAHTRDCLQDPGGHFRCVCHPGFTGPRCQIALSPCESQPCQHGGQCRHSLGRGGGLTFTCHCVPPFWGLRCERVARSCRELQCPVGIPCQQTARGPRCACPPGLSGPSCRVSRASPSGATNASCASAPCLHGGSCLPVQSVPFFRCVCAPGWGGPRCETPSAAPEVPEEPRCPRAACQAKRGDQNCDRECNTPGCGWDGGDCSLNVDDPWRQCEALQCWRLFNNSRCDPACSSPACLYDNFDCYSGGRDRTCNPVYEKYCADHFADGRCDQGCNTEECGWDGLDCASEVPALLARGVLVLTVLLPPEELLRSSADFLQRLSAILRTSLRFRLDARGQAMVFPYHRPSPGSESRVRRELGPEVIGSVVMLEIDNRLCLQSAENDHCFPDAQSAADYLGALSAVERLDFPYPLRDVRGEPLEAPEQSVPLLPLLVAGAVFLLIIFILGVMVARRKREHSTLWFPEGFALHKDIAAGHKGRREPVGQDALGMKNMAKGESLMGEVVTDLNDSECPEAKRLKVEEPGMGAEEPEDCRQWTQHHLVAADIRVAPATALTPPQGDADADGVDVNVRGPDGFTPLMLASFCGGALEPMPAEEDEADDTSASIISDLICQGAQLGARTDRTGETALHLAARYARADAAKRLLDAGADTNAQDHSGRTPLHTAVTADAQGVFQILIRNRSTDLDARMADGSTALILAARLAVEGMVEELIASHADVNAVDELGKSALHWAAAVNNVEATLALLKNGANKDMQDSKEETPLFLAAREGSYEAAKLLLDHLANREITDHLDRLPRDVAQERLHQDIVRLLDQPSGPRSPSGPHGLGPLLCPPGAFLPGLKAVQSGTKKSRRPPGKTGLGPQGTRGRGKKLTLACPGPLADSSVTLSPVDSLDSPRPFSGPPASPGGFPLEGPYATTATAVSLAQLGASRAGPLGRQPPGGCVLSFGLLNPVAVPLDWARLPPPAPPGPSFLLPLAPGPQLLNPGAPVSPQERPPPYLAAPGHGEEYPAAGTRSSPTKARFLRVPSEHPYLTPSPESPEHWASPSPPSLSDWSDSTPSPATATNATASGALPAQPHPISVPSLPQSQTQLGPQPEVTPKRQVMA
UniProt P67809: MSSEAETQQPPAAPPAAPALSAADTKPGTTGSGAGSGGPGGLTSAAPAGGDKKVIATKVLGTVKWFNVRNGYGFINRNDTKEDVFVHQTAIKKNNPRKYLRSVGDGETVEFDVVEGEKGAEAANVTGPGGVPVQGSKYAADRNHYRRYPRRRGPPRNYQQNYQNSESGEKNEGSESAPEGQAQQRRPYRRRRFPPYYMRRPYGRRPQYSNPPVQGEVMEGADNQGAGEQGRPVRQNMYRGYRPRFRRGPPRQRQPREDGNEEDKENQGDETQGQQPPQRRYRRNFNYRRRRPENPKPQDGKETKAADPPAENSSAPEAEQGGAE
UniProt P78504, residues 34-1067: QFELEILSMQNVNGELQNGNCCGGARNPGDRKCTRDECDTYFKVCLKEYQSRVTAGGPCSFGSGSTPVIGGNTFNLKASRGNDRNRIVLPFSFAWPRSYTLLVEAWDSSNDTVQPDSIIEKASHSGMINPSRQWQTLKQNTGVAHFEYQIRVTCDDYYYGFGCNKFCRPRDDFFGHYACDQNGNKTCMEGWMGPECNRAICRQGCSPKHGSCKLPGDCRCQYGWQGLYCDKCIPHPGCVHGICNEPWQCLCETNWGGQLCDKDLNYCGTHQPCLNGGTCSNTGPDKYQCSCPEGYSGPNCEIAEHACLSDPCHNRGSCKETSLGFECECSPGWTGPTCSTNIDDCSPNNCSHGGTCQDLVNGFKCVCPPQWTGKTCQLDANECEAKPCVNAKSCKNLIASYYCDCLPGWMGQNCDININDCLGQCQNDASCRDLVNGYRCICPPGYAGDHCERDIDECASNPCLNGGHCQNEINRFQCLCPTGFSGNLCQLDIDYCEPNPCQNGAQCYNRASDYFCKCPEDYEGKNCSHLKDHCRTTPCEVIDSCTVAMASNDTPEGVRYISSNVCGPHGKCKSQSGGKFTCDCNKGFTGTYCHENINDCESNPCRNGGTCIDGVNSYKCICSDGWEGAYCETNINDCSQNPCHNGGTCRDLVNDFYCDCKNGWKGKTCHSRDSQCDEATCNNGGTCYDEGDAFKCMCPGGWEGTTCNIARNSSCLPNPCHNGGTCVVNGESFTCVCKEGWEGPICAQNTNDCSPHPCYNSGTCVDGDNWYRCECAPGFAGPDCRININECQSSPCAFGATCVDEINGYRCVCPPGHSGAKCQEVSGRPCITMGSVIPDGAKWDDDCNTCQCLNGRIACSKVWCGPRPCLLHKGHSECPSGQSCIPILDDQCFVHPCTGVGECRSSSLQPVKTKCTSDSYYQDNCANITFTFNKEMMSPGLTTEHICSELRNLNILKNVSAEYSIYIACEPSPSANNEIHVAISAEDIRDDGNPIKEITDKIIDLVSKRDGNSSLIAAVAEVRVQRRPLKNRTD

Key:
[1] = target: Notch-3-Fc-Chimera (aa40-467, EGF 1-11) (UniProt Q9UM47); assay: ELISA; solid-phase binding assay: Notch-3-Fc chimera (aa40-467) 0.5 ug/mL coated on MaxiSorp plates; biotinylated ligands 10^-7 to 10^-11 mol/L in binding buffer (50 mM Tris, 150 mM NaCl, 5 mM MnCl2, 0.1% BSA, pH 7.2), 4°C, 3 h; streptavidin-HRP, absorbance at 450 nm; both purified
[2] = target: full-length murine Notch-3 receptor overexpressed on HEK293 cells (murine) (UniProt Q61982); assay: cell-based ligand binding assay (biotinylated ligand, streptavidin-HRP, absorbance at 450 nm); HEK293(T) cells overexpressing full-length murine Notch-3 in 24-well plates; biotinylated ligands 10^-7 to 10^-11 mol/L in binding buffer (50 mM Tris, 150 mM NaCl, 5 mM MnCl2, 0.1% BSA, pH 7.2), 4°C, 3 h; only the binder purified

Row | binding [1] | binding [2] | Substance
1 | binds | binds | in vitro guanidinylated recombinant YB-1 (YB-1-2G) (from UniProt P67809 1-324) (ligand)
2 | binds | binds | recombinant Jagged-1 (from UniProt P78504 34-1067) (ligand)
3 | binds | binds | recombinant YB-1 (Y-box binding protein-1) (from UniProt P67809 1-324) (ligand)
